The list shows a part of the results.

Protein sequences, listed by entry. Tags and fused reporters are not part of them. Lines headed by an entry give the natural chain unless they say otherwise; changes in a name come on top.
UniProt Q9Y397: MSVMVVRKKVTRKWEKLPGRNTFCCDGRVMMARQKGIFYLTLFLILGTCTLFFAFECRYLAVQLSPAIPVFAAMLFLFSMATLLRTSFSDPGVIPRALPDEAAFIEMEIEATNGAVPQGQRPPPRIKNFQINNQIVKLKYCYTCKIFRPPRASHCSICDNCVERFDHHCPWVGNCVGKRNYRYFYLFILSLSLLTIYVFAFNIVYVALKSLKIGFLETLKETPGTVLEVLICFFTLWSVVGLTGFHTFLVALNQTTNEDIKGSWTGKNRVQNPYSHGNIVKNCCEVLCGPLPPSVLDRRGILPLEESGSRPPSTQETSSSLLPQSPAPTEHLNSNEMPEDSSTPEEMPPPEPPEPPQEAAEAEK
UniProt O43167: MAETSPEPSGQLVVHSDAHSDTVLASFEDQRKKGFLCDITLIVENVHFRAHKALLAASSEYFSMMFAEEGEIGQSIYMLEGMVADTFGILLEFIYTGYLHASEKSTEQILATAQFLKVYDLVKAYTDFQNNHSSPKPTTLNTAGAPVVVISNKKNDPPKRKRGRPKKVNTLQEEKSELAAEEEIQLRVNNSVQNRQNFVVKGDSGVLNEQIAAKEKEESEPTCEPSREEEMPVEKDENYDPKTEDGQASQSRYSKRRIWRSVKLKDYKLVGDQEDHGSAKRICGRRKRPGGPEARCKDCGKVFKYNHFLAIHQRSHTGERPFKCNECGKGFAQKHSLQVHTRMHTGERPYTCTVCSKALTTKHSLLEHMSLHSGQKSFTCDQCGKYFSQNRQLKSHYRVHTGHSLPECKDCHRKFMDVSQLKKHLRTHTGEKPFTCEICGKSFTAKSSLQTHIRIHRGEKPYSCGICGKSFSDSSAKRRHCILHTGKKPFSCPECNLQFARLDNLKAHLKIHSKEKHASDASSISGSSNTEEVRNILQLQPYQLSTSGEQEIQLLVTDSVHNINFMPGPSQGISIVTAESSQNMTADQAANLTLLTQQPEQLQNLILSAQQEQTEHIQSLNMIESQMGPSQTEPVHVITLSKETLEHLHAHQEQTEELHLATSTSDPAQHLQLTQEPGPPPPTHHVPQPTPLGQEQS
UniProt Q15776: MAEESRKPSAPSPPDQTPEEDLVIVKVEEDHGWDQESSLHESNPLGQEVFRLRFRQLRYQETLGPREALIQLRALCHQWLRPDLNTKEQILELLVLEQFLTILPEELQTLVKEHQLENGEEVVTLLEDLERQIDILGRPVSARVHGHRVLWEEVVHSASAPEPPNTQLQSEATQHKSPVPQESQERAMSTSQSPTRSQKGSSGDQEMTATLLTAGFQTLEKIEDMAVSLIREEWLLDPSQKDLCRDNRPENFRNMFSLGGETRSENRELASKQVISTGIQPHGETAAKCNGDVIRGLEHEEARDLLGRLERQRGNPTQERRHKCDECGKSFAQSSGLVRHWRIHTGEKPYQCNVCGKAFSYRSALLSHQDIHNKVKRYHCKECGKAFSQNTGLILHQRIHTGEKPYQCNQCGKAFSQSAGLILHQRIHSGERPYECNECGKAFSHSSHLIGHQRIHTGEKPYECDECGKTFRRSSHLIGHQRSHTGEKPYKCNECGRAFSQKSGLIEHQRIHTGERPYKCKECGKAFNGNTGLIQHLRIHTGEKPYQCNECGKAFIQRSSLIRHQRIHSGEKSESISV
UniProt O43670: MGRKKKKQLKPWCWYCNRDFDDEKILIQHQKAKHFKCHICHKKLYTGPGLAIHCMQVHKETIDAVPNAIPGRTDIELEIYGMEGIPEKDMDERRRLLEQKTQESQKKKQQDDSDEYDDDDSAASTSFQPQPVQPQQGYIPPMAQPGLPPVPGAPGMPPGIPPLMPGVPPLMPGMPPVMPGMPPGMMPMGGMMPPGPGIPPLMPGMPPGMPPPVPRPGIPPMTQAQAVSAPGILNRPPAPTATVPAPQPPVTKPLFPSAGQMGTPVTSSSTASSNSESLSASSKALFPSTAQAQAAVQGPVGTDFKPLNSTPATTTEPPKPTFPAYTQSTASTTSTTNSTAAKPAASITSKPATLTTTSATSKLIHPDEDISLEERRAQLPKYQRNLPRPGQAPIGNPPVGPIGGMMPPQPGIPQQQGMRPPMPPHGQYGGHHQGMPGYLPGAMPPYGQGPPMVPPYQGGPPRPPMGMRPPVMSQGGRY
UniProt P23025: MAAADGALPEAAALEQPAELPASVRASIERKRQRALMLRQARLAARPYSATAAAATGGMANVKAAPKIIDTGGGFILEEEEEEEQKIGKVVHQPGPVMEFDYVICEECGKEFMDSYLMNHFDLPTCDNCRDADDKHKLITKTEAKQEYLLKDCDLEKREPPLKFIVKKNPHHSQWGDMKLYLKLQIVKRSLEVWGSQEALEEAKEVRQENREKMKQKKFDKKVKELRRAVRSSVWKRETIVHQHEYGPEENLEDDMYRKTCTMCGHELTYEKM
UniProt P58557: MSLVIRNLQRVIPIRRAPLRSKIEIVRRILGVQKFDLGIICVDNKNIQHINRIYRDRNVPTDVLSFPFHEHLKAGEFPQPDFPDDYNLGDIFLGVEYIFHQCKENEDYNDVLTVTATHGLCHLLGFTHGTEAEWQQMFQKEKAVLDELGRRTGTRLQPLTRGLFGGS
UniProt Q8IUH4: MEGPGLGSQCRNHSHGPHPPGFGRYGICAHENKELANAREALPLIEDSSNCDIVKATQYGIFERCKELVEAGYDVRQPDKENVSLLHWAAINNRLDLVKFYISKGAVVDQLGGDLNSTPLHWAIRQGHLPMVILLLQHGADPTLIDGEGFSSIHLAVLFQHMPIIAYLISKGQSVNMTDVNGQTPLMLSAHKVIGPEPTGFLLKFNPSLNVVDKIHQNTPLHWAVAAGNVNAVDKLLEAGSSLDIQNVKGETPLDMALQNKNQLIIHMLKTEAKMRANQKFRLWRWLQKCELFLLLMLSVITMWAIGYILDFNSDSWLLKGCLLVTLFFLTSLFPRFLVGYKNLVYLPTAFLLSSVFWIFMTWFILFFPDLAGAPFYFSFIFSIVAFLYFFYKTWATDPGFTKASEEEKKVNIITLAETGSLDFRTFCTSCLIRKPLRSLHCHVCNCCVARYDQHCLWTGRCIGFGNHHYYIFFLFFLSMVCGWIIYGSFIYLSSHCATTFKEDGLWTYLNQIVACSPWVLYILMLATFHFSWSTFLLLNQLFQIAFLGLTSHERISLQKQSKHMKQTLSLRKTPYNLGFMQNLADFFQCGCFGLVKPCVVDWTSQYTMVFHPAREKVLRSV
UniProt Q8IX07: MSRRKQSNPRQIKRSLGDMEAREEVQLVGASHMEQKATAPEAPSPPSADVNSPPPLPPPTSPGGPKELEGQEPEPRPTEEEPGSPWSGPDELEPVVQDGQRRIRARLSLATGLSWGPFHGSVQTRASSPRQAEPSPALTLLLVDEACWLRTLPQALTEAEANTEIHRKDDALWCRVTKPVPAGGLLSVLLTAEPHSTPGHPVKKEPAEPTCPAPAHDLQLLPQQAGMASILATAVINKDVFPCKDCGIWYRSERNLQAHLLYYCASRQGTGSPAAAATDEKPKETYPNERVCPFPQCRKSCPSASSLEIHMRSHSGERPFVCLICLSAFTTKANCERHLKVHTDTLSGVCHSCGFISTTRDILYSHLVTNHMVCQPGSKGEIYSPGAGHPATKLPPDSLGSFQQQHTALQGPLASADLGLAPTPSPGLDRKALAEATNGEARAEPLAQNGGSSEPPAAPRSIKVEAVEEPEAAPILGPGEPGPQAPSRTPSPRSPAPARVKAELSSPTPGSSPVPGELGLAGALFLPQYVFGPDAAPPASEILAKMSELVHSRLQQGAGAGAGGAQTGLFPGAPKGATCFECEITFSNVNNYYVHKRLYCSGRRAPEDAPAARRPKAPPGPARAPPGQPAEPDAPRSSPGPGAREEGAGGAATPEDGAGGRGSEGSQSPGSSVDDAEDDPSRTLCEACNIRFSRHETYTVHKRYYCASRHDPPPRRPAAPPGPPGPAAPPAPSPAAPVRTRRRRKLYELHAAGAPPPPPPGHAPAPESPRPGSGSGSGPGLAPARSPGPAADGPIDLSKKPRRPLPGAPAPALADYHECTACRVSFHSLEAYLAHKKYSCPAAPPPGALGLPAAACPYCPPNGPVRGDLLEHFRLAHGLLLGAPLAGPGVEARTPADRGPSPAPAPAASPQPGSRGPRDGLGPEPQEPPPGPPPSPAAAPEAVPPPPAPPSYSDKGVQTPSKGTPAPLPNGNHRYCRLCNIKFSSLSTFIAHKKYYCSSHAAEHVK
UniProt Q9H8U3: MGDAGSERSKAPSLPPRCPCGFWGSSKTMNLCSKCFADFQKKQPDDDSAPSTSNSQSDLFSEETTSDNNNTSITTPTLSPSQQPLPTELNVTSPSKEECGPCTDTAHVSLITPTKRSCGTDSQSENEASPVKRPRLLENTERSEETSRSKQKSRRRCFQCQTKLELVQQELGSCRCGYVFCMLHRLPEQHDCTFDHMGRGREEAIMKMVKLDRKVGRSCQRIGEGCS
UniProt O60293: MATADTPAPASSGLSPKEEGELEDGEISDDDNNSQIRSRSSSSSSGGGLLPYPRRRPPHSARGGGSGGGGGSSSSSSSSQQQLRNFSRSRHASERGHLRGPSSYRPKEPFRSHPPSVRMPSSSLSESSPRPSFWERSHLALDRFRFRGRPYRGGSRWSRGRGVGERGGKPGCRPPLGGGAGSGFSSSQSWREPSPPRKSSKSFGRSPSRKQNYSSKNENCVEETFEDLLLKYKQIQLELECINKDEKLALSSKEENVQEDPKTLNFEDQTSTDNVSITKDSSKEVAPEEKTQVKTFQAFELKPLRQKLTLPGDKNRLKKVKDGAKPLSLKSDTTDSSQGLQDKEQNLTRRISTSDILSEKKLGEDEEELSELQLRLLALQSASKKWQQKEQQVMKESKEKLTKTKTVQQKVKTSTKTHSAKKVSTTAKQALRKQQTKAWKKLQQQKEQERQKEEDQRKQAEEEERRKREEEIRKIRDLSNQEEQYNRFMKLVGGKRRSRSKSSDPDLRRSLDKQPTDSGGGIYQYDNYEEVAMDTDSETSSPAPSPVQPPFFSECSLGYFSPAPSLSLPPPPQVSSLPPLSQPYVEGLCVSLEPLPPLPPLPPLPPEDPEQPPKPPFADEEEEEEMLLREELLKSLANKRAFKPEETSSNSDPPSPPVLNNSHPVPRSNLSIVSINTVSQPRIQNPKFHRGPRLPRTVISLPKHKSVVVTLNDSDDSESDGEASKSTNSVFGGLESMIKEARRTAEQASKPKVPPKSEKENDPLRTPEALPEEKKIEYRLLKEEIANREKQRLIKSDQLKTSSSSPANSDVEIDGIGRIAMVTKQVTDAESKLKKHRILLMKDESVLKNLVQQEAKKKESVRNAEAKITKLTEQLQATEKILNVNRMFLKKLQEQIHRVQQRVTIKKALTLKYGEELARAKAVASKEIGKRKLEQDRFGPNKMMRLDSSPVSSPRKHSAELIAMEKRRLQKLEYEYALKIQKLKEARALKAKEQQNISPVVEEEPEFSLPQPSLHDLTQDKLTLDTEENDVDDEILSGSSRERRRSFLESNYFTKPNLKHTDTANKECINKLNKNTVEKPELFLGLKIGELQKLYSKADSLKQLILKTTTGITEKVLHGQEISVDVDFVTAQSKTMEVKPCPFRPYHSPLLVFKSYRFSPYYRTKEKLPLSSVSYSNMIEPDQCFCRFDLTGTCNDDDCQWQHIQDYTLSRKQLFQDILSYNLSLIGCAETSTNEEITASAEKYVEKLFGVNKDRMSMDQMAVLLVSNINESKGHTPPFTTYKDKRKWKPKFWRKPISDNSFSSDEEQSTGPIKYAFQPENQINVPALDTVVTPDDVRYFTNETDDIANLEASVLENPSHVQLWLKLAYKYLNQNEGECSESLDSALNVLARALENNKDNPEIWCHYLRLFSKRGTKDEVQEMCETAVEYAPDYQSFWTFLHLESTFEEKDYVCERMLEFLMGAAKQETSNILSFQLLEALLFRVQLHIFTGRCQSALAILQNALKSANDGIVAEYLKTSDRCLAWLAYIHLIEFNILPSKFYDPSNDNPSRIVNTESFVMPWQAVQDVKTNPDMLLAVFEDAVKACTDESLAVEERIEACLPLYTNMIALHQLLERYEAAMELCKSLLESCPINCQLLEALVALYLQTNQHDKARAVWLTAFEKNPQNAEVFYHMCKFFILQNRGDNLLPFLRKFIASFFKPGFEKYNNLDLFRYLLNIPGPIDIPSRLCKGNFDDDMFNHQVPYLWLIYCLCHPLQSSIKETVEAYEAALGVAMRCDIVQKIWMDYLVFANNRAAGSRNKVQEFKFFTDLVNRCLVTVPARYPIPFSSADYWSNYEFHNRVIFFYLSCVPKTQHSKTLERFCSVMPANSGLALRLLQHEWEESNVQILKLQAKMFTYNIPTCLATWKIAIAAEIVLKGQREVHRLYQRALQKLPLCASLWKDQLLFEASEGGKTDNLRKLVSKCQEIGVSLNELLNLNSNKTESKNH

We go through 15 targets from the supplement of paper PMC10849652.

Compound in this assay: Cc1ccc(C(=O)N(CCCN)[C@@H](c2nc3cc(Cl)ccc3c(=O)n2Cc2ccccc2)C(C)C)cc1 [ispinesib]
The assay is described as follows: log2 fold change, soluble protein after heating vs DMSO (PISA); higher = thermal stabilisation; K562 cells, 10 uM, 30 min; active = over 0.2 and 3.5 SD of the protein, either way, in both replicates (recomputed). The method, boiled down: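 Soluble protein was defined as the supernatant after 21,000xg for 90 min. It came from K562 cells at 2×10^6 cells/mL given 10 μM compound for 30 min, heated in aliquots for 3 min across 48°C-58°C, pooled, and extracted in PBS with 0.5% NP-40 at 4°C, and was quantified by TMTpro 16plex LC-MS/MS with equalised channel sums. Thermal stability against control samples, from duplicates, is reported as log2 fold change.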
In the case of ZDHHC9 (UniProt Q9Y397), the log2 fold change was inactive: -0.114.

As to ZBTB24 (UniProt O43167), the log2 fold change is inactive: -0.279. The result for ZFYVE21 isoform 2 (UniProt Q9BQ24) reads inactive: -0.079. Consider ZKSCAN8 (UniProt Q15776), for which the log2 fold change was inactive: -0.198. Take ZBTB14 (UniProt O43829): the log2 fold change is inactive: 0.093. The result for ZNF207 isoform 2 (UniProt O43670) reads inactive: 0.006; that for XPA (UniProt P23025), inactive: -0.132; that for YBEY (UniProt P58557), inactive: -0.426. In the case of ZDHHC13 (UniProt Q8IUH4) it was inactive: 0.009; in that of ZFPM1 (UniProt Q8IX07), inactive: -0.127; in that of ZKSCAN4 (UniProt Q969J2), inactive: 0.338. Regarding XP32 (UniProt Q5T750), the log2 fold change was inactive: 0.364.

For the target ZFAND3 (UniProt Q9H8U3), the log2 fold change is inactive: -0.056. In the case of ZFC3H1 (UniProt O60293) it was inactive: 0.014. The result for YIPF2 (UniProt Q9BWQ6) reads inactive: -0.133.
